The source of these data is the supplement of paper PMC8616043.

Molecules are shown by their SMILES. Counter-ions that a name gives are not always drawn. This is one part of the list. This data set is noisy: repeats of one test often differ as much as different tests do.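 Human U-2 OS cells stably expressing a GFP sensor with a nuclear import signal and classical export signal were transfected to produce PR50, a 50-repeat proline–arginine dipeptide from ALS/FTD gene C9ORF72. Nuclear-minus-cytoplasm GFP was scaled from DMSO (low) to PR-only (high), scored against plate test wells; strongly negative scores marked PR-reversing hits.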

In the test the test system is U-2 OS NCT-C biosensor cells expressing PR50. In words: Z-score of normalised NCT-C biosensor translocation index in PR50-expressing cells; higher = more nuclear biosensor (more disrupted nuclear export). As to conditions: 3 µM; 24 h.
For the compound `CCc1nc(N)nc(N)c1-c1ccc(Cl)cc1` [Pyrimethamine], the Z-score is inactive: -0.241. For `CN1CC(=O)N2[C@H](c3ccc4c(c3)OCO4)c3[nH]c4ccccc4c3C[C@@H]2C1=O` [Tadalafil] the value was inactive: -0.267.

For `CC(NC(=O)c1ccccc1/N=C/c1c(O)ccc2ccccc12)c1ccccc1` (configuration not stated) [Sirtinol], the Z-score was inactive: -1.22. `C[C@@H]1CC[C@H]2[C@](C)(CO)[C@@H](O)CC[C@]2(C)[C@@]12CC[C@@](CO)(CCO)O2` [Lagochiline]: the Z-score is inactive: -0.666. For `COc1cccc2oc(-c3ccccc3)cc(=O)c12` [5-Methoxyflavone] the value was inactive: 0.374; for `Nc1n[n+]([O-])c2ccccc2[n+]1[O-]` [Tirapazamine], inactive: -0.0348; for `CCCN1CCCC[C@H]1C(=O)Nc1c(C)cccc1C` [Ropivacaine·HCl Monohydrate], inactive: -1.08. In the case of `Cc1ccc(S(=O)(=O)N[C@@H](Cc2ccccc2)C(=O)CCl)cc1` [N-p-Tosyl-L-phenylalanine chloromethyl ketone] it was inactive: -1.06; in that of `Cn1c(=O)[nH]c2ncn(C)c2c1=O` [1,7-Dimethylxanthine], inactive: 0.79. `C#CCN[C@@H]1CCc2ccccc21` [Rasagiline Mesylate]: the Z-score was inactive: -0.208. In the case of `C1COC(NC(C2CC2)C2CC2)=N1` [Rilmenidine hemifumarate] it was inactive: -1.07; in that of `OC[C@H]1O[C@@H](n2cnc3c(NC4CCCC4)ncnc32)[C@H](O)[C@@H]1O` [N6-  Cyclopentyladeno sine], inactive: -0.439; in that of `C[N+](C)(C)CC=O` [Betaine aldehyde chloride], inactive: 2.61. `O[C@H]1CCN2Cc3ccccc3N=C12` [Vasicine]: the Z-score is inactive: 0.327.

Consider `O=C(O)c1cn(C2CC2)c2cc(N3CCNCC3)c(F)cc2c1=O` [Ciprofloxacin], for which the Z-score was inactive: 0.332. For `CC1=CC(=O)C(C(C)C)=CC1=O` [Thymoquinone] the value was inactive: -0.731; for `O=C(/C=C/c1ccc(O)cc1)CC(=O)/C=C/c1ccc(O)cc1` [Bis demethoxycurcumin], inactive: 1.68.

Consider `COc1ccccc1Oc1c(NS(=O)(=O)c2ccc(C(C)(C)C)cc2)nc(-c2ncccn2)nc1OCCO` [Bosentan], for which the Z-score was inactive: 0.929. `O=C(O)Cc1c[nH]c2ccccc12` [Indole-3-acetic acid]: the Z-score is inactive: -0.413.

Turning to `CN(C)CCC=C1c2ccccc2COc2ccccc21` [Doxepin hydrochloride], the Z-score was inactive: -0.132. For `CN(C)CCC=C1c2ccccc2COc2ccccc21` [Doxepin·HCl] the value was inactive: -0.401. For `CC(C)[N+](C)(CCOC(=O)C1c2ccccc2Oc2ccccc21)C(C)C` [Propantheline bromide] the value was inactive: 0.751. In the case of `CCN(c1nc(N)c(C(=O)NC(=N)N)nc1Cl)C(C)C` [5-(N-Ethyl-N- isopropyl) amiloride] it was inactive: 0.303; in that of `O=C(O)Cc1c[nH]c2ccc(O)cc12` [5-Hydroxyindol acetic acid], inactive: 0.219. For `CCN(CC)CCOC(=O)c1cc(Cl)c(N)cc1OC` [SDZ-205,557  hydrochloride], the Z-score was inactive: -1.05. In the case of `NC/C=C/C(=O)O` [(E)-4-amino-2-butenoic acid] it was inactive: -0.878. In the case of `CC(=O)N[C@@H](Cc1c[nH]c2ccccc12)C(=O)OCc1cc(C(F)(F)F)cc(C(F)(F)F)c1` it was inactive: 0.169; in that of `O=C(N[C@H](CO)[C@H](O)c1ccc([N+](=O)[O-])cc1)C(Cl)Cl` [Chloramphenicol], inactive: 0.74; in that of `CCC[C@@H]1C[C@@H](C(=O)N[C@@H]([C@H]2O[C@H](SC)[C@H](O)[C@@H](O)[C@H]2O)[C@H](C)Cl)N(C)C1` [Clindamycin·HCl], inactive: 2.69.

As for `Cn1cnc2c1c(=O)[nH]c(=O)n2C` [Theobromine], the Z-score is inactive: -0.565. For `CCN(CC)CCNC(=O)c1cc(Cl)c(N)cc1OC` [Metoclopramide·HCl] the value was inactive: -0.349; for `CCN(CC)CCNC(=O)c1cc(Cl)c(N)cc1OC` [Metoclopramide hydrochloride], inactive: -0.636. Regarding `NCCCNCCCCNCCCN` [Spermine tetrahydrochloride], the Z-score is inactive: -0.329. For `CN(C)C/C=C(/c1ccc(Br)cc1)c1cccnc1` [Zimelidine dihydrochloride] the value was inactive: 0.181; for `COc1ccc(O)cc1` [Mequinol], inactive: 0.474; for `Cc1c(-c2ccccc2)oc2c(C(=O)OCCN3CCCCC3)cccc2c1=O` [Flavoxate·HCl], inactive: 2.

In the case of `C[C@@H]1NC(=O)[C@@H](N)CNC(=O)[C@H](C2CCNC(=N)N2)NC(=O)/C(=C/NC(N)=O)NC(=O)[C@H](CNC(=O)CC(N)CCCN)NC1=O.N=C1NCC[C@H]([C@@H]2NC(=O)/C(=C/NC(N)=O)NC(=O)[C@H](CNC(=O)C[C@@H](N)CCCN)NC(=O)[C@H](CO)NC(=O)[C@@H](N)CNC2=O)N1` [Capreomycin], the Z-score was inactive: 0.805.

As to `C[C@@H]1NC(=O)[C@@H](N)CNC(=O)[C@H](C2CCNC(=N)N2)NC(=O)/C(=C/NC(N)=O)NC(=O)[C@H](CNC(=O)CC(N)CCCN)NC1=O.N=C1NCC[C@H]([C@@H]2NC(=O)/C(=C/NC(N)=O)NC(=O)[C@H](CNC(=O)C[C@@H](N)CCCN)NC(=O)[C@H](CO)NC(=O)[C@@H](N)CNC2=O)N1` [Capreomycin Disulfate], the Z-score was inactive: 0.0357. Regarding `CC1(C)O[C@H]2CC(=O)OC[C@]23[C@H]2CC[C@@]4(C)[C@H](c5ccoc5)OC(=O)[C@H]5O[C@]54[C@]2(C)C(=O)C[C@@H]13` [Limonin], the Z-score was inactive: -0.706.

Regarding `OC[C@H]1NC[C@H](O)[C@@H](O)[C@@H]1O` [1-Deoxynojirimycin hydrochloride], the Z-score was inactive: -0.557.

With `Cc1cc(C)c(CNC(=O)c2cc(-c3ccc(CN4CCOCC4)cc3)cc3c2cnn3C2CCCC2)c(=O)[nH]1`, the Z-score is inactive: -1.91. In the case of `Cn1c(=O)c2[nH]c(-c3ccccc3)nc2n(C)c1=O` [1,3-Dimethyl-8-phenylxanthine] it was inactive: -0.48.
